PubChem BioAssay AID1224830 | NIAID | 2016

Purpose: 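Genes whose knock-down alters the TNF-alpha reporter response to LPS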 (primary screen)
Cells: human THP-1 monocytic leukaemia cells, TNF dual-luciferase reporter clone, PMA-differentiated to macrophage-like cells
Reagent: siRNA pool against human genes, 50 nM
Time to read-out: LPS for 4 h, given about 3 days after siRNA transfection
Treatment: bacterial LPS (TLR4 ligand), 10 ng/ml
Measured: 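Ratio of firefly to renilla light, scaled to the plate median and expressed as a robust z-score per replicate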
Scale: TNF reporter robust z-score: higher = stronger TNF reporter response to LPS
Hit rule: 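Each well counts as active if its z-score is over 2.8 or under -1.5; controls are left without a call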
This is one part, drawn at random, of about 18,000 reagents. About 2,900 of all reagents (16%) count as active. 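Calls are made per well; low scores hint the gene aids the LPS response, high scores that it dampens it.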 Unmarked entries are inactive. Reagents against one gene are numbered here. Repeated entries: four replicate wells of each siRNA pool. Reagent sequences are not shown.

no.	gene	pool no.	TNF reporter robust z-score
1	ODC1	1	0.37
2	ODC1	1	0.3
3	ODC1	1	0.78
4	ODC1	1	1.53
5	HBEGF	1	-0.64
6	HBEGF	1	-0.6
7	HBEGF	1	-0.81
8	HBEGF	1	-0.15
9	ZBTB20	1	-1.3
10	ZBTB20	1	-0.66
11	ZBTB20	1	-1.08
12	ZBTB20	1	-0.65
13	YWHAQ	1	0.57
14	YWHAQ	1	0.25
15	YWHAQ	1	0.26
16	YWHAQ	1	0.41
17	ANKRD9	1	-0.5
18	ANKRD9	1	-0.12
19	ANKRD9	1	-1.08
20	ANKRD9	1	-1.26
21	H2BC5	1	0.98
22	H2BC5	1	0.78
23	H2BC5	1	1.36
24	H2BC5	1	-0.2
25	CFAP47	1	1.34
26	CFAP47	1	1.25
27	CFAP47	1	0.88
28	CFAP47	1	-0.3
29	CFAP47	2	-0.26
30	CFAP47	2	0.51
31	CFAP47	2	0.15
32	CFAP47	2	0.91
33	GPC5	1	-0.22
34	GPC5	1	-0.56
35	GPC5	1	-0.64
36	GPC5	1	-0.1
37	ARHGAP22	1	-0.65
38	ARHGAP22	1	-0.6
39	ARHGAP22	1	0.14
40	ARHGAP22	1	-0.09
41	SCN3B	1	2
42	SCN3B	1	-0.16
43	SCN3B	1	0.56

In a second layout: entries from further up
gene | pool no. | TNF reporter robust z-score
CFAP47 | 2 | 0.15
CFAP47 | 2 | 0.91
GPC5 | 1 | -0.22
GPC5 | 1 | -0.56
GPC5 | 1 | -0.64
GPC5 | 1 | -0.1
ARHGAP22 | 1 | -0.65
ARHGAP22 | 1 | -0.6
ARHGAP22 | 1 | 0.14

The listing continues:
no.	gene	pool no.	TNF reporter robust z-score
44	XAB2	1	-0.41
45	XAB2	1	-0.49
46	XAB2	1	-0.88
47	XAB2	1	-0.93
48	TMEM119	1	-0.67
49	TMEM119	1	0.23
50	TMEM119	1	-0.09
51	TMEM119	1	-0.86
52	CEP104	1	0.85
53	CEP104	1	-0.24
54	CEP104	1	-0.82
55	CEP104	1	-0.11
56	ANXA11	1	-0.67
57	ANXA11	1	0.37
58	ANXA11	1	-0.18
59	ANXA11	1	0.41
60	NRIP1	1	0.24
61	NRIP1	1	-0.17
62	NRIP1	1	0.37
63	NRIP1	1	0.05
64	KLC3	1	-0.35
65	KLC3	1	-0.1
66	KLC3	1	0.17
67	KLC3	1	-0.79
68	RTN4R	1	-0.75
69	RTN4R	1	-0.17
70	RTN4R	1	-0.64
71	RTN4R	1	-0.28
72	RNF166	1	0.03
73	RNF166	1	-0.21
74	RNF166	1	-0.66
75	RNF166	1	1.11
